{"sequences": {"note": "Sequences of proteins named here, by UniProt entry; tags and fusion partners are left off. Residues count along the entry.", "UniProt P22366": "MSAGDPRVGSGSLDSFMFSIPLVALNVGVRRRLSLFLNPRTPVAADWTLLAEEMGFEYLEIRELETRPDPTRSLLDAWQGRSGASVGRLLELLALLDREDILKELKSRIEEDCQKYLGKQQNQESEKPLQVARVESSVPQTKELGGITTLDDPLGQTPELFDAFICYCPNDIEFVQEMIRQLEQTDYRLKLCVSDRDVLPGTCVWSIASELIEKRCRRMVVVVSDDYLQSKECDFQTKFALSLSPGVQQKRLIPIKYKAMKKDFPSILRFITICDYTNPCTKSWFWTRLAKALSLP", "UniProt Q9QUK6, residues 26-835": "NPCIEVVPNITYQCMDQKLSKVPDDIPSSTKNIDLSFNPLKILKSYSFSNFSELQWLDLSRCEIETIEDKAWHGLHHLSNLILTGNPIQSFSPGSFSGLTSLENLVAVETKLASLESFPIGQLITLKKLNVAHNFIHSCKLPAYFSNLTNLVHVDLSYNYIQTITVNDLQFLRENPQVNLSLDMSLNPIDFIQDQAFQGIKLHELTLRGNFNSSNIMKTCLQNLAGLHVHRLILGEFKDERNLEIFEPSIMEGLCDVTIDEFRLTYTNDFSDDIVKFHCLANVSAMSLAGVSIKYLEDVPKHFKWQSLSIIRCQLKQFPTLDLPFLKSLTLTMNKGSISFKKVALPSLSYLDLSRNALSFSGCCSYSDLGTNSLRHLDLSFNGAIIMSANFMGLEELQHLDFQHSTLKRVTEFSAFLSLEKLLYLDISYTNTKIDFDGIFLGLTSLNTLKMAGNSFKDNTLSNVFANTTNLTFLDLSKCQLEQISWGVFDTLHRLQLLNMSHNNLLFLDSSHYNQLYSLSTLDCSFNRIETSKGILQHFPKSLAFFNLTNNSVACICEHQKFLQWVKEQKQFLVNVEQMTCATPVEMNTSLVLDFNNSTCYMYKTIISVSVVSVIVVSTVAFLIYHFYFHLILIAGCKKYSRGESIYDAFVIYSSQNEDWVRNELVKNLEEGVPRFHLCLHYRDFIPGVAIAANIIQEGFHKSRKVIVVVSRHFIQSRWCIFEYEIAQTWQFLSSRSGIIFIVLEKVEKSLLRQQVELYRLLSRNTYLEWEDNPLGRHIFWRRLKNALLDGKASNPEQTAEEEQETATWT"}, "source": "paper PMC11535217", "target": "MyD88, endogenous in mouse bone marrow-derived macrophages (mouse (endogenous in bone marrow-derived macrophages)) (UniProt P22366)", "assay": "co-IP; endogenous proteins in mouse bone marrow-derived macrophages, 1 μM TSA for 12 h then 100 ng/ml LPS for 30 min", "note": "No constants are given. Whether binding was seen depends on the method and setting. Binding seen in cells or lysates may run through a third protein. Some entries that bind do so weakly or less than the wild type.", "data": [{"substance": "TLR4, endogenous in mouse bone marrow-derived macrophages (from UniProt Q9QUK6 26-835) (receptor)", "values": [{"measurement": "binding", "value": "binds"}]}]}
